Library screen at single concentrations

The chains behind the UniProt entries cited, without tags or fusion partners. Residues count along the entry.
UniProt P9WPC5, whole entry: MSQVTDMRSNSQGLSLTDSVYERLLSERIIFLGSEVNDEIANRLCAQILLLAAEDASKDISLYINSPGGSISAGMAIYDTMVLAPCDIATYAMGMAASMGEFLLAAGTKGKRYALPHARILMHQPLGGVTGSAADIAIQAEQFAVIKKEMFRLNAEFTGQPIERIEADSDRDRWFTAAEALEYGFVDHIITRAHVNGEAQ
UniProt P9WPC3, whole entry partner: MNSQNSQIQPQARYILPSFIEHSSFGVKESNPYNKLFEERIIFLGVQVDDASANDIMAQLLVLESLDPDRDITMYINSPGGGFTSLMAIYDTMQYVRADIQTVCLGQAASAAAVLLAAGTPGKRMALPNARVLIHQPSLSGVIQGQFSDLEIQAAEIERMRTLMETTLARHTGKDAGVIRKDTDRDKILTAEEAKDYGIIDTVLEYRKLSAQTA
UniProt Q4DA54, 1-478: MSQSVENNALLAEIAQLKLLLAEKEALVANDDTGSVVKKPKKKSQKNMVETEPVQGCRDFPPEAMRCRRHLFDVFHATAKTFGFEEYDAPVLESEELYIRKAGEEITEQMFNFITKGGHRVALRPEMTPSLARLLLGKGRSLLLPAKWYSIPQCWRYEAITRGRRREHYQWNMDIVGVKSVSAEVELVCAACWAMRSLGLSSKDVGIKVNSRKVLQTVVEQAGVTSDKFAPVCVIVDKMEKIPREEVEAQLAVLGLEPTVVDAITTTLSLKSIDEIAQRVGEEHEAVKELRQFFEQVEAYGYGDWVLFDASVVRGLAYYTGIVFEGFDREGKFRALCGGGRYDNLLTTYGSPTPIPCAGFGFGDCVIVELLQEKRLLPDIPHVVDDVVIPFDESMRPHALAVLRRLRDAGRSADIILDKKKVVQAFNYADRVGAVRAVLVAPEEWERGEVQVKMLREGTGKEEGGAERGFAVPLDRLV
UniProt Q8IDJ8, 1-583: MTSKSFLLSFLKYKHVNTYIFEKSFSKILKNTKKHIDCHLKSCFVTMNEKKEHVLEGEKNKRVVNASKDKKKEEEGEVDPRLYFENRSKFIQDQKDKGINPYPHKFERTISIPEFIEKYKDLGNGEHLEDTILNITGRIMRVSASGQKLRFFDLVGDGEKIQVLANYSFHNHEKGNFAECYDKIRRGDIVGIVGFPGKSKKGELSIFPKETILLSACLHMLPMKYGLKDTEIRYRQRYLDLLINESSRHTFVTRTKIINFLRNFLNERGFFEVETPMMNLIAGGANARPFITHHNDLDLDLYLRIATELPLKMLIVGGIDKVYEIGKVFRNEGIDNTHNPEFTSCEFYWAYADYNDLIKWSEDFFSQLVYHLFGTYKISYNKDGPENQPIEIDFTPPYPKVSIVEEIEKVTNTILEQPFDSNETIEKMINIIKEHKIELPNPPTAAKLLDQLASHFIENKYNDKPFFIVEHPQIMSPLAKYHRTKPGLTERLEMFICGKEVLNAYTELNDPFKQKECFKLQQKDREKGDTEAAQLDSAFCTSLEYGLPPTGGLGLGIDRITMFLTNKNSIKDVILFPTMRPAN
UniProt I6X8D2, whole entry: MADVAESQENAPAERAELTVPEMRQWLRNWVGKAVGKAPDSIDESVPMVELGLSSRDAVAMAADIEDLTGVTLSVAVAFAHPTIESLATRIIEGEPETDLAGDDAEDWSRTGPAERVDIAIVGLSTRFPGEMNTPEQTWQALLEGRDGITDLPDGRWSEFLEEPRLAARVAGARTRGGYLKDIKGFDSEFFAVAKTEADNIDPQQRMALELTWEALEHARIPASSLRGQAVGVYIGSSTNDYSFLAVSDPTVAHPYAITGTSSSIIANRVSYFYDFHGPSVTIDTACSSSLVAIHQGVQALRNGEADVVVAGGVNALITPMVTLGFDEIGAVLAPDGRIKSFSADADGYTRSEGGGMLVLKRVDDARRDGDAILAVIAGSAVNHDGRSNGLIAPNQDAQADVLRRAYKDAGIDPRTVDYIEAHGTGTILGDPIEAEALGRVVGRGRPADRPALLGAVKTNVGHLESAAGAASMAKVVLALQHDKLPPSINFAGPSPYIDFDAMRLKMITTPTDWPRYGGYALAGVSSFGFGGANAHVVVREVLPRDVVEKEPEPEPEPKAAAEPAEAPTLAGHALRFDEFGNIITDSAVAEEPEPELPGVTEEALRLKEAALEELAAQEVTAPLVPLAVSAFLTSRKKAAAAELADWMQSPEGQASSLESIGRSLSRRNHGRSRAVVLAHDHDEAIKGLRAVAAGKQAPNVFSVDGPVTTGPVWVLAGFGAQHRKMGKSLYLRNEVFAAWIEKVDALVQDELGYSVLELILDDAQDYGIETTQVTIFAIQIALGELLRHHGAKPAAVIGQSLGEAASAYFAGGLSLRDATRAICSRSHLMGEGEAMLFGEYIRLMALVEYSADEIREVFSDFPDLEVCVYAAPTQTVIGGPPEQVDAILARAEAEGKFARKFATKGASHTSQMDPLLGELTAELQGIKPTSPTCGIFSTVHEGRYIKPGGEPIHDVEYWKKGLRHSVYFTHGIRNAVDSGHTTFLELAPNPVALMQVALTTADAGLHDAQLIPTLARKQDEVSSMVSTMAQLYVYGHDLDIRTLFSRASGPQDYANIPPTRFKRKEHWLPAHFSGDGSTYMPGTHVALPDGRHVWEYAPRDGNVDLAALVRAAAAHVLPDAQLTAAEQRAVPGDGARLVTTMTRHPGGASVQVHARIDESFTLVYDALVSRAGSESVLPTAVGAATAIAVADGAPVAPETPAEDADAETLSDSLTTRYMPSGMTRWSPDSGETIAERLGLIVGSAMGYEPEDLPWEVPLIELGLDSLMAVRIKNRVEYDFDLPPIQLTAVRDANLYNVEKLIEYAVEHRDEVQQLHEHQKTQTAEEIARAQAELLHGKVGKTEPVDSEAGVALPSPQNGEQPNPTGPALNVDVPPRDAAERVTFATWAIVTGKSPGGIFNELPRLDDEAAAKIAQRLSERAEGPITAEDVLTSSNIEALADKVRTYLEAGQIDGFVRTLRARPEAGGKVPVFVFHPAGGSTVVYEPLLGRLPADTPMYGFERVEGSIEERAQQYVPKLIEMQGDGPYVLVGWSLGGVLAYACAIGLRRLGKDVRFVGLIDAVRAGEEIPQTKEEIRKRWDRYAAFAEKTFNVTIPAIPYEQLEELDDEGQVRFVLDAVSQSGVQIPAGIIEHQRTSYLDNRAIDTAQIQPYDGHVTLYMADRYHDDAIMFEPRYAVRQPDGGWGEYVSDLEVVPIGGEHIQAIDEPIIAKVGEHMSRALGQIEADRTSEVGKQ

ClpP1P2: 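ClpP1P2, Mycobacterium tuberculosis (UniProt P9WPC5 and UniProt P9WPC3). Protease assay of ClpP1P2, read by the AMC dye that it sets free. Compounds at 50 µM. Direction is inferred from only a few compounds that gave an IC50; most scored high, so higher reads as stronger inhibition. Most other retested compounds had strongly negative values. Size under these conditions: about 69,000 compounds, about 10 of them at 50% or above in at least one test.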
TcHisRS: 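Histidine-tRNA ligase, Trypanosoma cruzi CL Brener (UniProt Q4DA54). Enzyme assay of histidyl-tRNA synthetase; the read-out is not stated. Tested at 30 µM. The record gives no direction; compounds that gave an IC50 in retests scored well above the rest, so higher reads as stronger inhibition. About 69,000 compounds were tested under these conditions; 0.045% (about 31) showed 50% or more at least once.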
PfKRS1: 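Lysine-tRNA ligase, Plasmodium falciparum 3D7 (UniProt Q8IDJ8). Enzyme assay of the cytosolic lysyl-tRNA synthetase in 384-well plates, read by luminescence. Compounds at 30 µM. Direction is inferred from only a few compounds that gave an IC50; most scored high, so higher reads as stronger inhibition. Of about 69,000 compounds tested this way, about 49 (0.071%) reached 50% or more in at least one test.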
Pks13 thioesterase: 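Enzyme assay of the thioesterase domain of polyketide synthase 13; the read-out is not stated. Target: Polyketide synthase Pks13, Mycobacterium tuberculosis (UniProt I6X8D2). Compounds at 30 µM. Higher reads as stronger inhibition (inferred from which compounds were picked for retests). About 67,000 compounds were tested under these conditions; 0.46% (about 300) showed 50% or more at least once.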

Each number is a percent effect as filed. How 0% and 100% were set is not recorded. Most values in the screen are low, and negative values occur. Compounds were drawn at random from those tested, without regard to their results. A dash means the value is not listed here; it may have been measured.

SMILES	ClpP1P2	TcHisRS	PfKRS1	Pks13 thioesterase
CC1c2ncc(CN3CCN(C)CC3)n2CCN1CC1CC1 (stereo not drawn)	7.093%	3.784%	2.919%	-4.889%
CCn1ccnc1CN1CCN(CC(O)c2cccc(F)c2)CC1 (stereo not drawn)	-50.59%	5.539%	1.368%	-21.32%
Cc1nn(C)c(C)c1C1CCCN1Cc1nc(-c2cccs2)no1 (stereo not drawn)	-7.873%	3.488%	1.6%	-0.1906%
O=C(NCC1COCCO1)c1csc(Cc2ccccc2)n1 (stereo not drawn)	-13.08%	4.615%	0.1679%	0.4273%
Cc1cc(C(=O)N2CCN(C(=O)CCC3CCCCC3)CC2)n(C)n1	-8.586%	11.76%	2.742%	-
CCc1nc(C2CCCN2CCc2cccs2)no1 (stereo not drawn)	-8.683%	6.122%	-1.532%	-12.11%
Cc1n[nH]cc1CNC1CCN(c2ccccc2)CC1	-0.7263%	15.61%	3.159%	-19.4%
Cc1ccsc1C(=O)N1Cc2ncn(C)c2C(COCC2CC2)C1 (stereo not drawn)	4.669%	9.677%	0.6846%	-
Cc1ccc(C(=O)N2CCC3(CC2)CC(c2ccccc2)C(=O)N3)o1 (stereo not drawn)	-11.01%	4.902%	8.569%	-44.63%
COc1ccccc1CN1CCCC(Cc2nccnc2N)C1 (stereo not drawn)	5.648%	7.692%	1.496%	-2.41%
O=C(c1cnc(-c2ccccn2)s1)N1CCCC(n2cccn2)C1 (stereo not drawn)	-26.31%	-12.89%	-3.086%	-24.9%
O=C(NC1CC1)[C@@H]1CCO[C@@H]2CCN(C3CCOCC3)C[C@@H]21	-9.571%	-1.674%	-0.06566%	-12.64%
CN(Cc1ccco1)[C@@H]1CN(C(=O)c2ccnnc2)C[C@@H]2CCCO[C@@H]21	-0.1019%	0.8264%	-3.03%	-8.352%
Cn1cc(C(C)(O)CNc2ccc(Cl)c(C#N)n2)cn1 (stereo not drawn)	8.755%	0.5525%	18.43%	-15%
COc1cccc2c1OCCCN(c1nc(C)nc3c1CCNCC3)C2	0.4749%	8.718%	3.742%	-18.18%
CC(C)(C)OCCN1CCCC1c1nc(Cc2ccc(F)cc2)no1 (stereo not drawn)	5.271%	-11.33%	3.116%	74.86%
O=C(c1cnccn1)N1CCn2cnc(COCC3CC3)c2C1	6.092%	5.376%	-4.858%	-
CCCn1cc(NC(=O)c2cccnc2O)ccc1=O	3.841%	13.33%	10.44%	13.66%
Cc1cnn(CC2CCCN2CCCc2nc3ccccc3o2)c1 (stereo not drawn)	8.003%	1.149%	0.09965%	-14.86%
CN1C[C@@H](F)[C@@H](OCc2nc3ccccc3n2C)C1	-12.38%	0%	1.847%	-9.347%
O=C(CN1CCOC(Cn2cccn2)C1)Nc1nncs1 (stereo not drawn)	4.249%	-0.3774%	3.522%	-22.79%
NC(=O)CCCNC(=O)Cc1cccc(I)c1	-1.274%	6.897%	3.856%	-7.923%
CCNc1nc(C)c(C(=O)N2CCC(C(O)Cc3ccccc3)CC2)s1 (stereo not drawn)	-4.974%	7.463%	-0.5821%	5.419%
Cn1ncc2c(=O)[nH]c(CN3CCCC3CC(C)(C)C)nc21 (stereo not drawn)	-28.33%	3.468%	2.559%	3.012%
Cc1cnc(C(=O)N2CCCC(n3nc(C)nc3C)C2)cn1 (stereo not drawn)	-18.64%	4.942%	1.659%	17%
CC(C)N1CCCC(Cc2nccnc2Cl)CC1 (stereo not drawn)	1.908%	6.513%	1.871%	-0.6743%
Cc1cccc(N2CCN(CC(=O)N3CCCC(N(C)C)CC3)CC2)c1 (stereo not drawn)	-20.6%	0%	8.255%	1.363%
O=C(O)C1(Oc2cccc(F)c2)CCN(c2ccncc2)CC1	-8.596%	5.528%	4.4%	-10.04%
Cc1ccc(S(=O)(=O)N2CCOc3ccccc32)cc1C(=O)O	28.45%	0%	2.415%	1.145%
CCn1nc(C(=O)N2CCCC2c2noc(C3CC3)n2)ccc1=O (stereo not drawn)	8.718%	0.9804%	-5.118%	14.04%
COc1c(Br)c(C(=O)NC2CCCCC2)nn1C	-7.424%	4.969%	8.852%	-
CC(=O)N1CCC(C)(c2cc[nH]n2)CC1	-14.51%	11.65%	2.075%	-3.449%
COc1cccc2c1ccn2CCNC(C)=O	-1.84%	5.263%	2.885%	-34.26%
COc1ccccc1OCC(=O)n1nc(C)c(C)c1C	-16.04%	3.415%	7.883%	-6.645%
CCCc1nnc(NC2CCN(C3CCOCC3)CC2)o1	-6.738%	6.579%	3.156%	-
CC(=O)N(C)CC(=O)NC1(c2ccc(Cl)c(Cl)c2)CC1	1.586%	11.45%	2.486%	12.65%
COc1ccc(CN2CCn3cc(CNC(=O)CC4CC4)nc3C2)cc1	-8.962%	9.852%	-0.04644%	-26.75%
Cc1ccc(NC2CCN(C(=O)COc3cccnc3)CC2)nn1	11.88%	2.632%	0.5565%	-13.44%
OCCN(Cc1cccnc1)c1ccc(Br)cn1	-3.886%	5.051%	5.726%	-24.61%
NC(=O)CCSc1n[nH]c(-c2ccc3c(c2)CCC3)n1	-9.239%	1.327%	3.618%	-2.847%
Cn1cccc1CN(C(=O)Cc1cccs1)C1CC1	4.146%	2.646%	5.93%	-15.58%
CNC(=O)CNCC1(O)CCCN(Cc2ccc(F)c(F)c2)C1=O (stereo not drawn)	-4.691%	-2.242%	-0.04787%	-
O=C(NC1CC1)C(c1ccccc1)N1CCN(Cc2ccc(Cl)s2)CC1 (stereo not drawn)	-22.46%	-0.8772%	4.37%	-4.867%
CCO[C@H]1C[C@@H](O)C12CCN(S(=O)(=O)c1ccccc1OC)CC2	-8.688%	5.882%	2.157%	-12.43%
CCn1cnnc1CCNC(=O)c1ccc(F)c(Br)c1	-3.224%	4.762%	4.42%	-12.16%
O=C(NCCc1cccnc1)c1nc2c(s1)CCCN2C(=O)C1CC1	-12.05%	7.735%	2.986%	-7.38%
CS(=O)(=O)c1cccc2c1CCCN2C(=O)Cc1cccc(F)c1	-1.078%	4.891%	5.826%	-44.29%
Cn1ncc(C(=O)N2CCN(C(=O)c3ccco3)CC2)c1Cl	-1.857%	-2.609%	-1.351%	-24.12%
Cn1c2c(c(=O)n1C)CN(C(=O)c1ccsc1)CCC2	-1.667%	0%	1.402%	-35.65%
CC(Cn1cccn1)NC(=O)N1CCN(Cc2ccsc2)CC1 (stereo not drawn)	-54.49%	0.8721%	-0.2752%	-8.621%
CSc1nc2ccsc2c(=O)n1CC(=O)N(C)c1ccccc1	-14.15%	4.386%	3.364%	-21.74%
C/C(=C\c1ccco1)CN(C)C(C)c1ccccn1 (stereo not drawn)	0.3257%	1.064%	2.5%	-8.584%
CN(C)c1ncccc1CNc1snc(Cl)c1C#N	-0.263%	5.521%	3.018%	0.08444%
Cc1ccc(CN2CCc3nnc(CN4CCCC4=O)n3CC2)s1	-5.057%	4.854%	3.955%	-16.91%
CC1(C)CC(N2CCN(C3CCCC3)C(CCO)C2)CC(C)(C)C1 (stereo not drawn)	-32.16%	2.232%	1.913%	-5.373%
O=C(c1c[nH]cn1)N1CCC(F)(F)C2(CCN(c3ccccn3)C2)C1 (stereo not drawn)	1.875%	3.226%	2.923%	-20.04%
Cc1ncnc2c1CCN(C(=O)c1ccncc1)CC2	-3.841%	4.478%	2.378%	28.01%
O=C(NCCC1CCN(CC(F)(F)F)CC1)C1CCCO1 (stereo not drawn)	-10.51%	1.327%	1.025%	-15.78%
COC(=O)c1ccc2ccn(CC3COCCO3)c(=O)c2c1 (stereo not drawn)	-6.2%	-0.5025%	26.41%	-13.07%
CC(C)Cc1ccc(S(=O)(=O)Nc2ccc(=O)n(C)c2)cc1	2.25%	0.7519%	33.55%	4.277%
CCc1nc(CN(C)C2CCN(CCn3cccn3)C2)no1 (stereo not drawn)	-9.797%	3.725%	0.1653%	-3.099%

From ChEMBL document CHEMBL3988442, “University of Dundee, Small-Polar-MMV Screening Library” (2021).